Data source: PubChem BioAssay AID1224829 (NIAID, 2016)

Aim: 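Secondary check of hits that alter LPS-induced p65 translocation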 (follow-up of hits)
Cells: mouse RAW264.7 G9 macrophage reporter cells
Reagent: single siRNA against mouse genes, 100 nM
Timing: 2 days of siRNA knock-down, then 40 min of LPS before fixing
Treatment: LPS (Salmonella minnesota R595) at 10 ng/ml
Read-out: 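Imaging of GFP-p65 after 40 min of LPS; nuclear over perinuclear ring intensity ratio, scaled to plate median and non-targeting control wells, given as z-score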
Reading the numbers: p65 translocation z-score and gene median z-score, per vendor: higher = more nuclear NF-kappaB p65 after LPS
Rule for the call: 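An siRNA is called active when the mean z-score of its two replicates is above 2 or below -2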
Meaning of the calls: active = changed p65 translocation (either direction); inactive = no clear change
In all, the deposit lists about 3,800 reagents; below is an unselected part. 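Calls cover raised and lowered translocation; gene median uses one vendor's three siRNAs; qiagen siRNAs acted more weakly than ambion siRNAs.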 No sequences are given here.

| target gene | PubChem SID | siRNA vendor or control pool | p65 translocation z-score, replicate mean | p65 translocation z-score, replicate 1 | p65 translocation z-score, replicate 2 | gene median z-score, per vendor | call |
| --- | --- | --- | --- | --- | --- | --- | --- |
| Psme3 | SID315484719 | ambion single siRNA | 0.82 | 2.06 | -0.424 | -1.31 | inactive |
| Psme3 | SID315484720 | ambion single siRNA | -1.31 | -1 | -1.63 | -1.31 | inactive |
| Psme3 | SID315484721 | ambion single siRNA | -3.49 | -3.84 | -3.14 | -1.31 | active |
| Psme3 | SID315484722 | qiagen single siRNA | 1.37 | 1.23 | 1.52 | 0.744 | inactive |
| Psme3 | SID315484723 | qiagen single siRNA | 0.216 | -0.29 | 0.722 | 0.744 | inactive |
| Psme3 | SID315484724 | qiagen single siRNA | 0.726 | 0.685 | 0.766 | 0.744 | inactive |
| Svil (supervillin) | SID315488262 | ambion single siRNA | 0.278 | -0.632 | 1.19 | -0.61 | inactive |
| Svil (supervillin) | SID315488263 | ambion single siRNA | -0.73 | -0.587 | -0.872 | -0.61 | inactive |
| Svil (supervillin) | SID315488264 | ambion single siRNA | -0.8 | 2.16 | -3.76 | -0.61 | inactive |
| Svil (supervillin) | SID315488265 | qiagen single siRNA | 0.491 | 1.18 | -0.196 | 0.267 | inactive |
| Svil (supervillin) | SID315488266 | qiagen single siRNA | 0.267 | 0.267 | – | 0.267 | inactive |
| Svil (supervillin) | SID315488267 | qiagen single siRNA | -0.0288 | -1.6 | 1.54 | 0.267 | inactive |
| Krr1 (KRR1 small subunit processome component) | SID315485625 | ambion single siRNA | -7.09 | -7.28 | -6.9 | -5.5 | active |
| Krr1 (KRR1 small subunit processome component) | SID315485626 | ambion single siRNA | -5.45 | -5.5 | -5.41 | -5.5 | active |
| Krr1 (KRR1 small subunit processome component) | SID315485627 | ambion single siRNA | -1.72 | -1.72 | – | -5.5 | inactive |
| Krr1 (KRR1 small subunit processome component) | SID315485628 | qiagen single siRNA | -0.352 | -2.18 | 1.47 | 0.396 | inactive |
| Krr1 (KRR1 small subunit processome component) | SID315485629 | qiagen single siRNA | -1.31 | -1.93 | -0.682 | 0.396 | inactive |
| Krr1 (KRR1 small subunit processome component) | SID315485630 | qiagen single siRNA | 4.88 | 3.54 | 6.22 | 0.396 | active |
| Rpl13a (ribosomal protein L13A) | SID315485052 | ambion single siRNA | -1.89 | -2.4 | -1.38 | -1.4 | inactive |
| Rpl13a (ribosomal protein L13A) | SID315485053 | ambion single siRNA | -1.25 | -1.41 | -1.09 | -1.4 | inactive |
| Rpl13a (ribosomal protein L13A) | SID315485054 | ambion single siRNA | -1.9 | 0.39 | -4.2 | -1.4 | inactive |
| Rpl13a (ribosomal protein L13A) | SID315485055 | qiagen single siRNA | -5.31 | -5.31 | – | -3.8 | active |
| Rpl13a (ribosomal protein L13A) | SID315485056 | qiagen single siRNA | -2.63 | -1.45 | -3.8 | -3.8 | active |
| Rpl13a (ribosomal protein L13A) | SID315485057 | qiagen single siRNA | -2.98 | -0.967 | -4.99 | -3.8 | active |
| Crebl2 (cAMP responsive element binding protein-like 2) | SID315488367 | ambion single siRNA | -2.27 | -2.68 | -1.86 | -2.27 | active |
| Crebl2 (cAMP responsive element binding protein-like 2) | SID315488368 | ambion single siRNA | -1.78 | -1.78 | -1.77 | -2.27 | inactive |
| Crebl2 (cAMP responsive element binding protein-like 2) | SID315488369 | ambion single siRNA | -3.53 | -4.13 | -2.94 | -2.27 | active |
| Crebl2 (cAMP responsive element binding protein-like 2) | SID315488370 | qiagen single siRNA | 2.82 | 2.66 | 2.97 | -0.115 | active |
| Crebl2 (cAMP responsive element binding protein-like 2) | SID315488371 | qiagen single siRNA | -0.115 | 0.0277 | -0.258 | -0.115 | inactive |
| Crebl2 (cAMP responsive element binding protein-like 2) | SID315488372 | qiagen single siRNA | -0.569 | -0.432 | -0.706 | -0.115 | inactive |
| P2rx5 (purinergic receptor P2X, ligand-gated ion channel, 5) | SID315487335 | ambion single siRNA | 0.969 | 0.841 | 1.1 | 0.709 | inactive |
| P2rx5 (purinergic receptor P2X, ligand-gated ion channel, 5) | SID315487336 | ambion single siRNA | 0.709 | 0.709 | – | 0.709 | inactive |
| P2rx5 (purinergic receptor P2X, ligand-gated ion channel, 5) | SID315487337 | ambion single siRNA | -4.14 | -5.13 | -3.15 | 0.709 | active |
| P2rx5 (purinergic receptor P2X, ligand-gated ion channel, 5) | SID315487338 | qiagen single siRNA | 0.177 | -0.506 | 0.861 | -1.15 | inactive |
| P2rx5 (purinergic receptor P2X, ligand-gated ion channel, 5) | SID315487339 | qiagen single siRNA | -0.825 | 0.146 | -1.8 | -1.15 | inactive |
| P2rx5 (purinergic receptor P2X, ligand-gated ion channel, 5) | SID315487340 | qiagen single siRNA | -2.52 | -1.88 | -3.15 | -1.15 | active |
